According to PMC7862700:
This is a selection; strong and weak results do not stand in their true shares. For part of these data: At the low end of the ranking, values are background and their order means little. Some of the results follow. For part of these data: The source does not settle which construct or isoform was used.

Chains of the proteins cited; added tags and fusions are not shown. Lines headed by an entry give the natural chain unless they say otherwise; changes in a name come on top.
UniProt P32519: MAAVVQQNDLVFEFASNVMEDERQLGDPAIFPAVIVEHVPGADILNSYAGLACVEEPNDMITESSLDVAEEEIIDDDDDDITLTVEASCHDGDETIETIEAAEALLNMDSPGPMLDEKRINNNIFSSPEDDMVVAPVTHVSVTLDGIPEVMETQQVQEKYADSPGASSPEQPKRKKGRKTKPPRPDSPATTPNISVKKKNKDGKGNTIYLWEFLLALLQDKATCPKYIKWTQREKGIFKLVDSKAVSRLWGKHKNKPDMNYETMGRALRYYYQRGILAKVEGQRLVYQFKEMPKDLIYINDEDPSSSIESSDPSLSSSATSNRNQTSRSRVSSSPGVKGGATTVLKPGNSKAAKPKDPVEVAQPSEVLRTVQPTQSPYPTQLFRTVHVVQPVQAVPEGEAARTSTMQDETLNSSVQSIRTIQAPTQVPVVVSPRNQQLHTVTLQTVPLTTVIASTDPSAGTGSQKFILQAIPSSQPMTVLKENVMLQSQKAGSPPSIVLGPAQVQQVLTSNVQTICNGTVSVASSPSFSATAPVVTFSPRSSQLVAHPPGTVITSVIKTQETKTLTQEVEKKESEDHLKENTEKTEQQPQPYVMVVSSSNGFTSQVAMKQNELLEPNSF
UniProt P50549: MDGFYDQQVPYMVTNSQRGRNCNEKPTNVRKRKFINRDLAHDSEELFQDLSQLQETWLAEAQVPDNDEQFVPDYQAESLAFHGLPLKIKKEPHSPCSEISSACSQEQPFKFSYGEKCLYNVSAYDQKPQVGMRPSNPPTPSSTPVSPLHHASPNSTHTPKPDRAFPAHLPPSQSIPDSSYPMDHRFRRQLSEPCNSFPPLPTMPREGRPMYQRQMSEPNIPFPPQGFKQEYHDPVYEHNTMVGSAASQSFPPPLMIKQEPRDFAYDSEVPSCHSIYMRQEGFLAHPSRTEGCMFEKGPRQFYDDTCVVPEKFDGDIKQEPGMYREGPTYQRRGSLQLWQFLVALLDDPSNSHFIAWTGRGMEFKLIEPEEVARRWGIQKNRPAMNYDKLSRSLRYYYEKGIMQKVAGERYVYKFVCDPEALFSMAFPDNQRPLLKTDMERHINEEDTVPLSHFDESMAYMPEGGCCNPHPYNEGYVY

Tests used:
Experiment in all cases: DAPPL (digital affinity profiling via proximity ligation, sequencing)
Conditions in all cases: 10 mM Tris-HCl pH 7.5, 50 mM NaCl, 1 mM DTT, 4% glycerol, room temperature, 30 min; GST-TFs on glutathione beads, 16-mer random dsDNA library, 0.1% …; high values mean tight binding; double strand, one strand shown; scale: fold enrichment (6-mer frequency, TF over GST control)
[1] = molecular target: T1, ERG (UniProt P11308)
T1 sequence: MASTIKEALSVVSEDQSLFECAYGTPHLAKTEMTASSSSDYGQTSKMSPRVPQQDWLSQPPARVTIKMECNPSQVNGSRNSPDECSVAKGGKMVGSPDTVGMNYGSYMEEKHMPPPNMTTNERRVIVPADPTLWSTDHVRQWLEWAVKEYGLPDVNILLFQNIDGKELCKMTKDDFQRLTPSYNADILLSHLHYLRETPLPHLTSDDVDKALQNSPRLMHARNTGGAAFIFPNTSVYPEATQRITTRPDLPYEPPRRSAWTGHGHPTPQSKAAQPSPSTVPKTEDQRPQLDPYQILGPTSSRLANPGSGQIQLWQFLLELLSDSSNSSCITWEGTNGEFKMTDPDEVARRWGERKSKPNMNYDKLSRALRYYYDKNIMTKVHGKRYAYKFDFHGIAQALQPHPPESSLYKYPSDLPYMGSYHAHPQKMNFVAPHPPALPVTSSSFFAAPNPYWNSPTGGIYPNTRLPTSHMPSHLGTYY

[2] = molecular target: ELF1 (UniProt P32519)
[3] = molecular target: T2, ELK4 (UniProt P28324-2)
T2 sequence: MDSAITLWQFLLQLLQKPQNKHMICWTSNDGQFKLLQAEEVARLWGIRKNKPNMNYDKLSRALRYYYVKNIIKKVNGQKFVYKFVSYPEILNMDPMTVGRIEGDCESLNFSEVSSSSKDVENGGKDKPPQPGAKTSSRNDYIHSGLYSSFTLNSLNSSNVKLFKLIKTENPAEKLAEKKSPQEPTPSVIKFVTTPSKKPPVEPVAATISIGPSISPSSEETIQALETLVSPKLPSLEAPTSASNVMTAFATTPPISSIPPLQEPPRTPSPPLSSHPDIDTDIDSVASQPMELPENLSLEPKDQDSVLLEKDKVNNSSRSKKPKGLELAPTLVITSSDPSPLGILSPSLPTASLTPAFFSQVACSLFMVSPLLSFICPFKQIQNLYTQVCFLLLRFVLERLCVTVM

[4] = molecular target: T3, ETV4 (UniProt P43268)
T3 sequence: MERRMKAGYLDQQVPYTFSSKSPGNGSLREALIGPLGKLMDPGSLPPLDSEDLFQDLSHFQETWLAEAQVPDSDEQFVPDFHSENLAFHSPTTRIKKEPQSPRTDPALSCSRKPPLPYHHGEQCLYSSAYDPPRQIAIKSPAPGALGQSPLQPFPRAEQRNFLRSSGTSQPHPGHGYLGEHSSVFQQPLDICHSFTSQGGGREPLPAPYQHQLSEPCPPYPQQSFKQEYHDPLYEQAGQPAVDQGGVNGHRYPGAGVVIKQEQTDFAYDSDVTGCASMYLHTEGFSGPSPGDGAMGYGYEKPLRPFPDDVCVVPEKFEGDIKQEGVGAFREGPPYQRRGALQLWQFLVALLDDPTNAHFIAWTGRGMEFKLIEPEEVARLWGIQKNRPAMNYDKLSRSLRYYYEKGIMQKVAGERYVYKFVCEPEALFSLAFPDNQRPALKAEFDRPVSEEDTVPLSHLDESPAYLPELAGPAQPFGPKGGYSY

[5] = molecular target: ETV1 (UniProt P50549)
[6] = molecular target: T4, ERF (UniProt P50548)
T4 sequence: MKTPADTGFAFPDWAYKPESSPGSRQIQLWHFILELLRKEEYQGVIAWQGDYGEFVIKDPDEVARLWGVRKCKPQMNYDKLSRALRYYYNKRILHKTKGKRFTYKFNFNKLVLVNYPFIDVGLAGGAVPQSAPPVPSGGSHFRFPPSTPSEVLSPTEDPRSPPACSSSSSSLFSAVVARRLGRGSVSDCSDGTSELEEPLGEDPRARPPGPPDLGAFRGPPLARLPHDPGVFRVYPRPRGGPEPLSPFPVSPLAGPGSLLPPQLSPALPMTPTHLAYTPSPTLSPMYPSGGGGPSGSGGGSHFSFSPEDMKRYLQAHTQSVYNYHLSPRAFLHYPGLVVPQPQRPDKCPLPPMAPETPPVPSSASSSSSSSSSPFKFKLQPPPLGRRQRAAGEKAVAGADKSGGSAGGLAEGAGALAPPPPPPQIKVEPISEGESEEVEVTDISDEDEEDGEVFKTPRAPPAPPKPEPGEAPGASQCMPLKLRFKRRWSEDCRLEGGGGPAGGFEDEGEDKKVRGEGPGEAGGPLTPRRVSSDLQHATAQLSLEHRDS

Row | Sequence | binding signal [1] | binding signal [2] | binding signal [3] | binding signal [4] | binding signal [5] | binding signal [6]
1 | GACGCA | 0.538 | 0.548 | 0.629 | 0.537 | 0.527 | 0.543
2 | CGTGAG | 0.123 | 0.112 | 0.13 | 0.108 | 0.118 | 0.129
3 | GTCATA | 0.837 | 0.772 | 0.8 | 0.773 | 0.832 | 0.81
4 | TCGGAG | 0.2 | 0.204 | 0.195 | 0.185 | 0.184 | 0.196
5 | TCGGAA | 0.566 | 0.521 | 0.496 | 0.523 | 0.571 | 0.553
6 | GTGAGC | 0.378 | 0.396 | 0.434 | 0.378 | 0.351 | 0.396
7 | GTAGGC | 0.682 | 0.712 | 0.641 | 0.676 | 0.722 | 0.696
8 | CCAGCG | 0.658 | 0.624 | 0.727 | 0.619 | 0.612 | 0.622
9 | GCGTAA | 0.895 | 0.935 | 0.944 | 0.841 | 0.863 | 0.878
10 | GTGCGG | 0.642 | 0.645 | 0.551 | 0.637 | 0.617 | 0.634
11 | GCAGAG | 0.595 | 0.664 | 0.754 | 0.695 | 0.619 | 0.605
12 | GGGCGA | 0.769 | 0.806 | 0.797 | 0.802 | 0.757 | 0.905
13 | GTAGAC | 0.737 | 0.766 | 0.765 | 0.801 | 0.794 | 0.813
14 | AAAGTG | 0.911 | 0.948 | 0.893 | 0.904 | 0.884 | 0.822
15 | ACACGT | 0.806 | 0.785 | 0.747 | 0.789 | 0.784 | 0.796
16 | ACGGAC | 0.805 | 0.853 | 0.801 | 0.8 | 0.88 | 0.814
17 | GTCAAG | 0.814 | 0.771 | 0.837 | 0.727 | 0.77 | 0.812
18 | AGGTAC | 0.918 | 0.95 | 0.966 | 0.935 | 0.88 | 0.904
19 | TGGGGG | 0.767 | 0.75 | 0.964 | 0.686 | 0.823 | 0.837
20 | CGGTCA | 0.826 | 0.811 | 0.767 | 0.828 | 0.826 | 0.806

Row | Sequence | binding signal [1] | binding signal [2] | binding signal [3] | binding signal [4] | binding signal [5] | binding signal [6]
21 | CAGTAG | 0.553 | 0.62 | 0.58 | 0.602 | 0.625 | 0.614
22 | CGGGCC | 0.679 | 0.75 | 0.775 | 0.725 | 0.837 | 0.727
23 | GGGGTG | 0.668 | 0.696 | 0.636 | 0.634 | 0.584 | 0.749
24 | GGGATA | 0.791 | 0.782 | 0.77 | 0.707 | 0.794 | 0.774
25 | CATGTG | 0.801 | 0.873 | 0.905 | 0.822 | 0.87 | 0.855
26 | GACAGA | 0.681 | 0.66 | 0.655 | 0.649 | 0.698 | 0.676
27 | TGGGTC | 0.646 | 0.699 | 0.617 | 0.668 | 0.601 | 0.684
28 | ACGTGG | 0.587 | 0.585 | 0.678 | 0.567 | 0.594 | 0.665
29 | AGTCGA | 0.442 | 0.398 | 0.369 | 0.381 | 0.444 | 0.459
30 | CGTGGA | 0.525 | 0.519 | 0.672 | 0.537 | 0.612 | 0.58
31 | CATGGA | 0.885 | 0.866 | 0.919 | 0.876 | 0.902 | 0.993
32 | GTGAGG | 0.24 | 0.257 | 0.263 | 0.254 | 0.254 | 0.254
33 | CGCCAG | 0.654 | 0.661 | 0.709 | 0.665 | 0.646 | 0.649
34 | GTGCCA | 0.796 | 0.789 | 0.783 | 0.763 | 0.781 | 0.741
35 | CGTCGT | 0.837 | 0.907 | 0.944 | 0.852 | 0.889 | 0.815
36 | AGACGT | 0.505 | 0.467 | 0.494 | 0.453 | 0.427 | 0.444
37 | CGGACA | 0.832 | 0.803 | 0.666 | 0.805 | 0.826 | 0.758
38 | GCAGTC | 0.478 | 0.516 | 0.451 | 0.458 | 0.457 | 0.525
39 | TAGGAG | 0.432 | 0.404 | 0.441 | 0.381 | 0.414 | 0.482
40 | GCAGTG | 0.575 | 0.57 | 0.619 | 0.575 | 0.589 | 0.587

Already shown: an excerpt of the list.
Row | Sequence | binding signal [1] | binding signal [2] | binding signal [3] | binding signal [4] | binding signal [5] | binding signal [6]
25 | CATGTG | 0.801 | 0.873 | 0.905 | 0.822 | 0.87 | 0.855
26 | GACAGA | 0.681 | 0.66 | 0.655 | 0.649 | 0.698 | 0.676
27 | TGGGTC | 0.646 | 0.699 | 0.617 | 0.668 | 0.601 | 0.684
28 | ACGTGG | 0.587 | 0.585 | 0.678 | 0.567 | 0.594 | 0.665
29 | AGTCGA | 0.442 | 0.398 | 0.369 | 0.381 | 0.444 | 0.459
30 | CGTGGA | 0.525 | 0.519 | 0.672 | 0.537 | 0.612 | 0.58
31 | CATGGA | 0.885 | 0.866 | 0.919 | 0.876 | 0.902 | 0.993
32 | GTGAGG | 0.24 | 0.257 | 0.263 | 0.254 | 0.254 | 0.254
33 | CGCCAG | 0.654 | 0.661 | 0.709 | 0.665 | 0.646 | 0.649
34 | GTGCCA | 0.796 | 0.789 | 0.783 | 0.763 | 0.781 | 0.741
35 | CGTCGT | 0.837 | 0.907 | 0.944 | 0.852 | 0.889 | 0.815
36 | AGACGT | 0.505 | 0.467 | 0.494 | 0.453 | 0.427 | 0.444
37 | CGGACA | 0.832 | 0.803 | 0.666 | 0.805 | 0.826 | 0.758

More records

Row | Sequence | binding signal [1] | binding signal [2] | binding signal [3] | binding signal [4] | binding signal [5] | binding signal [6]
41 | GTGTGG | 0.699 | 0.618 | 0.675 | 0.637 | 0.701 | 0.593
42 | CGCGAG | 0.569 | 0.533 | 0.495 | 0.534 | 0.561 | 0.601
43 | GGGAAT | 0.828 | 0.839 | 0.774 | 0.816 | 0.801 | 0.846
44 | AGGCGT | 0.538 | 0.499 | 0.475 | 0.47 | 0.525 | 0.456
45 | GTCAGC | 0.702 | 0.703 | 0.748 | 0.766 | 0.727 | 0.632
46 | GGGCGT | 0.504 | 0.509 | 0.499 | 0.521 | 0.528 | 0.447
47 | GCCGGT | 0.627 | 0.675 | 0.653 | 0.634 | 0.69 | 0.644
48 | GTGTAG | 0.667 | 0.674 | 0.621 | 0.614 | 0.654 | 0.728
49 | CGCGGG | 0.77 | 0.73 | 0.693 | 0.737 | 0.764 | 0.719
50 | GAGATG | 0.712 | 0.708 | 0.696 | 0.68 | 0.633 | 0.748
51 | GCTGAG | 0.663 | 0.629 | 0.756 | 0.615 | 0.744 | 0.612
52 | CGCAGT | 0.711 | 0.737 | 0.805 | 0.787 | 0.689 | 0.698
53 | GTGAAA | 0.681 | 0.783 | 0.65 | 0.721 | 0.807 | 0.67
54 | GAGCGG | 0.522 | 0.477 | 0.567 | 0.479 | 0.522 | 0.509
55 | ACGGCG | 0.839 | 0.889 | 0.845 | 0.818 | 0.864 | 0.804
56 | GACTGA | 0.732 | 0.847 | 0.826 | 0.843 | 0.837 | 0.809
57 | ACGGGC | 0.795 | 0.806 | 0.974 | 0.831 | 0.902 | 0.942
58 | AGGTAG | 0.673 | 0.653 | 0.605 | 0.612 | 0.63 | 0.583
59 | GACAAC | 0.941 | 0.982 | 0.862 | 0.962 | 0.973 | 0.883
60 | ACAACG | 0.939 | 0.962 | 0.964 | 1 | 0.952 | 0.997
